In PubChem BioAssay AID248 (DTP/NCI, 2004):
The list shows only some results of the screen, not a fair sample: it is rich in T/C values a quarter to a half above the control, in often repeated tests (any T/C) and in doses without a T/C. Further doses and runs are listed elsewhere. T/C: endpoint of the treated group in % of that of the vehicle group. Some doses have a count of surviving animals in place of a T/C: the source holds a T/C of zero for them, seemingly a mark for toxic or unscored doses. Survivors were counted at the toxicity check, usually on the fifth day, unless a day is given; later deaths do not show. Schedules are NCI's codes, taken here to give the interval after Q, in days (D) or hours (H), and the number of doses after X. Some schedule codes hold Z or #, which are not explained here. Some molecules as drawn cover several salts, stereoisomers or complexes of the source; a dose is that of the sample tested. For survival time, the PubChem record calls one and a half times the control and up active, and a quarter to a half above the control has no call in these data; cut-offs in other NCI protocols can differ. Some entries hold several experiments; their values stand side by side, smallest first. Some T/C values carry the count of animals alive at the toxicity check (mostly the fifth day); where none is given, no animal had died by that day.

System: L1210 leukemia ip in BDF1 mice, survival T/C
Assay: NCI In Vivo Anticancer Drug Screen. Data for tumor model L1210 Leukemia (intraperitoneal) in B6D2F1 (BDF1) mice
Conditions: higher T/C = longer survival

O=C(Nc1ccc(C2=NCCN2)cc1)c1ccc(C(=O)Nc2ccc(C3=NCCN3)cc2)cc1
T/C (T/C endpoint: mean survival time, dose: 0.15 mg/kg/injection, schedule: Q01DX Z (ip), vehicle: saline): 137 % of control [5 of 6 alive] | T/C (T/C endpoint: mean survival time, dose: 0.31 mg/kg/injection, schedule: Q01DX Z (ip), vehicle: saline): 127 % of control | T/C (T/C endpoint: mean survival time, dose: 0.63 mg/kg/injection, schedule: Q01DX Z (ip), vehicle: saline): 133 % of control | T/C (T/C endpoint: mean survival time, dose: 1.25 mg/kg/injection, schedule: Q01DX Z (ip), vehicle: saline): 130 % of control | T/C (T/C endpoint: mean survival time, dose: 1.25 mg/kg/injection, schedule: Q#A X Z (ip), vehicle: saline): 126 % of control | T/C (T/C endpoint: mean survival time, dose: 2.0 mg/kg/injection, schedule: Q#A X Z (ip), vehicle: saline): 131 % of control | T/C (T/C endpoint: mean survival time, dose: 2.5 mg/kg/injection, schedule: Q#A X Z (ip), vehicle: saline): 137 and 138 % of control | T/C (T/C endpoint: mean survival time, dose: 4.0 mg/kg/injection, schedule: Q01DX Z (ip), vehicle: methylcellulose (MC)): 130 % of control | T/C (T/C endpoint: mean survival time, dose: 5.0 mg/kg/injection, schedule: Q01DX015 (ip), vehicle: other): 143 % of control | T/C (T/C endpoint: mean survival time, dose: 5.0 mg/kg/injection, schedule: Q01DX Z (sc), vehicle: acid diluted with saline): 149 % of control | T/C (T/C endpoint: mean survival time, dose: 6.0 mg/kg/injection, schedule: Q01DX Z (ip), vehicle: methylcellulose (MC)): 139 % of control | T/C (T/C endpoint: mean survival time, dose: 7.5 mg/kg/injection, schedule: Q01DX Z (ip), vehicle: carboxymethylcellulose (CMC)): 125 % of control | T/C (T/C endpoint: mean survival time, dose: 8.0 mg/kg/injection, schedule: Q#A X Z (ip), vehicle: saline): 135 % of control | T/C (T/C endpoint: mean survival time, dose: 9.0 mg/kg/injection, schedule: Q01DX015 (ip), vehicle: carboxymethylcellulose (CMC)): 131 % of control | T/C (T/C endpoint: mean survival time, dose: 9.0 mg/kg/injection, schedule: Q01DX015 (ip), vehicle: other): 129 % of control | T/C (T/C endpoint: mean survival time, dose: 9.0 mg/kg/injection, schedule: Q01DX Z (ip), vehicle: methylcellulose (MC)): 132 % of control | T/C (T/C endpoint: mean survival time, dose: 13.0 mg/kg/injection, schedule: Q01DX Z (ip), vehicle: methylcellulose (MC)): 143 % of control | T/C (T/C endpoint: mean survival time, dose: 14.0 mg/kg/injection, schedule: Q01DX015 (ip), vehicle: carboxymethylcellulose (CMC)): 141 % of control | T/C (T/C endpoint: mean survival time, dose: 14.0 mg/kg/injection, schedule: Q01DX015 (ip), vehicle: other): 133 % of control | T/C (T/C endpoint: mean survival time, dose: 14.0 mg/kg/injection, schedule: Q01DX Z (ip), vehicle: methylcellulose (MC)): 147 % of control | T/C (T/C endpoint: mean survival time, dose: 15.6 mg/kg/injection, schedule: Q01DX Z (ip), vehicle: other): 146 % of control | T/C (T/C endpoint: mean survival time, dose: 16.0 mg/kg/injection, schedule: Q01DX Z (ip), vehicle: methylcellulose (MC)): 132 % of control | T/C (T/C endpoint: mean survival time, dose: 16.0 mg/kg/injection, schedule: Q01DX Z (ip), vehicle: saline): 126 % of control | T/C (T/C endpoint: mean survival time, dose: 16.0 mg/kg/injection, schedule: Q#A X Z (ip), vehicle: methylcellulose (MC)): 128 % of control | T/C (T/C endpoint: mean survival time, dose: 17.5 mg/kg/injection, schedule: Q07DX Z (ip), vehicle: saline): 127 % of control | survivor count (T/C endpoint: mean survival time, dose: 20.0 mg/kg/injection, schedule: Q01DX Z (iv), vehicle: acid diluted with saline): 0 of 7 | T/C (T/C endpoint: mean survival time, dose: 21.0 mg/kg/injection, schedule: Q01DX Z (ip), vehicle: methylcellulose (MC)): 144 % of control | T/C (T/C endpoint: mean survival time, dose: 28.0 mg/kg/injection, schedule: Q07DX Z (ip), vehicle: saline): 138 % of control | T/C (T/C endpoint: mean survival time, dose: 30.0 mg/kg/injection, schedule: Q01DX015 (ip), vehicle: other): 127 % of control | T/C (T/C endpoint: mean survival time, dose: 30.0 mg/kg/injection, schedule: Q01DX Z (ip), vehicle: carboxymethylcellulose (CMC)): 146 % of control | T/C (T/C endpoint: mean survival time, dose: 32.0 mg/kg/injection, schedule: Q01DX Z (ip), vehicle: methylcellulose (MC)): 143 % of control | survivor count (T/C endpoint: mean survival time, dose: 32.0 mg/kg/injection, schedule: Q01DX Z (ip), vehicle: saline): 1 of 7 | T/C (T/C endpoint: mean survival time, dose: 35.0 mg/kg/injection, schedule: Q01DX001 (ip), vehicle: saline): 103, 125, 137, 144 % of control | T/C (T/C endpoint: mean survival time, dose: 35.0 mg/kg/injection, schedule: Q07DX Z (ip), vehicle: saline): 143 % of control | survivor count (T/C endpoint: mean survival time, dose: 40.0 mg/kg/injection, schedule: Q01DX005 (iv), vehicle: saline): 3 of 6 | survivor count (T/C endpoint: mean survival time, dose: 40.0 mg/kg/injection, schedule: Q01DX Z (iv), vehicle: acid diluted with saline): 0 of 7 | T/C (T/C endpoint: mean survival time, dose: 45.0 mg/kg/injection, schedule: Q01DX015 (ip), vehicle: other): 134 % of control | T/C (T/C endpoint: mean survival time, dose: 48.0 mg/kg/injection, schedule: Q03DX Z (ip), vehicle: saline): 143 % of control | T/C (T/C endpoint: mean survival time, dose: 56.0 mg/kg/injection, schedule: Q07DX Z (ip), vehicle: methylcellulose (MC)): 127 % of control | T/C (T/C endpoint: mean survival time, dose: 56.0 mg/kg/injection, schedule: Q07DX Z (ip), vehicle: saline): 133 % of control | T/C (T/C endpoint: mean survival time, dose: 60.0 mg/kg/injection, schedule: Q01DX015 (ip), vehicle: other): 135 % of control | T/C (T/C endpoint: mean survival time, dose: 60.0 mg/kg/injection, schedule: Q01DX Z (ip), vehicle: carboxymethylcellulose (CMC)): 134 % of control | T/C (T/C endpoint: mean survival time, dose: 62.5 mg/kg/injection, schedule: Q01DX004 (im), vehicle: saline): 125 % of control | T/C (T/C endpoint: mean survival time, dose: 64.0 mg/kg/injection, schedule: Q01DX009 (ip), vehicle: saline): 134 and 136 % of control | T/C (T/C endpoint: mean survival time, dose: 89.0 mg/kg/injection, schedule: Q01DX001 (ip), vehicle: other): 130 % of control | T/C (T/C endpoint: mean survival time, dose: 96.0 mg/kg/injection, schedule: Q03DX Z (ip), vehicle: methylcellulose (MC)): 140 % of control | T/C (T/C endpoint: mean survival time, dose: 112.0 mg/kg/injection, schedule: Q07DX Z (ip), vehicle: methylcellulose (MC)): 139 % of control | T/C (T/C endpoint: mean survival time, dose: 112.0 mg/kg/injection, schedule: Q07DX Z (ip), vehicle: saline): 148 % of control | T/C (T/C endpoint: mean survival time, dose: 125.0 mg/kg/injection, schedule: Q01DX004 (im), vehicle: saline): 142 % of control | T/C (T/C endpoint: mean survival time, dose: 125.0 mg/kg/injection, schedule: Q01DX Z (sc), vehicle: steroid suspending solution): 129 % of control | T/C (T/C endpoint: mean survival time, dose: 128.0 mg/kg/injection, schedule: Q01DX009 (ip), vehicle: saline): 142 % of control | T/C (T/C endpoint: mean survival time, dose: 130.0 mg/kg/injection, schedule: Q01DX001 (ip), vehicle: other): 147 % of control | T/C (T/C endpoint: mean survival time, dose: 140.0 mg/kg/injection, schedule: Q01DX001 (ip), vehicle: saline): 144 % of control | survivor count (T/C endpoint: mean survival time, dose: 192.0 mg/kg/injection, schedule: Q03DX Z (ip), vehicle: saline): 1 of 6 | T/C (T/C endpoint: mean survival time, dose: 195.0 mg/kg/injection, schedule: Q01DX001 (ip), vehicle: carboxymethylcellulose (CMC)): 138 % of control | T/C (T/C endpoint: mean survival time, dose: 195.0 mg/kg/injection, schedule: Q01DX001 (ip), vehicle: saline): 129 % of control | survivor count (T/C endpoint: mean survival time, dose: 224.0 mg/kg/injection, schedule: Q07DX Z (ip), vehicle: methylcellulose (MC)): 1 of 7 | survivor count (T/C endpoint: mean survival time, dose: 224.0 mg/kg/injection, schedule: Q07DX Z (ip), vehicle: saline): 3 of 6 | survivor count (T/C endpoint: mean survival time, dose: 250.0 mg/kg/injection, schedule: Q01DX Z (ip), vehicle: other): 1 of 7 | T/C (T/C endpoint: mean survival time, dose: 250.0 mg/kg/injection, schedule: Q01DX Z (sc), vehicle: steroid suspending solution): 130 % of control | T/C (T/C endpoint: mean survival time, dose: 280.0 mg/kg/injection, schedule: Q01DX001 (ip), vehicle: saline): 131, 149, 241, 296 % of control [5 of 6 alive] | T/C (T/C endpoint: mean survival time, dose: 320.0 mg/kg/injection, schedule: Q01DX Z (ip), vehicle: saline): 148 % of control [5 of 6 alive] | T/C (T/C endpoint: mean survival time, dose: 320.0 mg/kg/injection, schedule: Q#A X Z (ip), vehicle: saline): 148 % of control | survivor count (T/C endpoint: mean survival time, dose: 384.0 mg/kg/injection, schedule: Q03DX Z (ip), vehicle: methylcellulose (MC)): 0 of 7 | survivor count (T/C endpoint: mean survival time, dose: 444.0 mg/kg/injection, schedule: Q01DX001 (ip), vehicle: carboxymethylcellulose (CMC)): 0 of 10 | survivor count (T/C endpoint: mean survival time, dose: 444.0 mg/kg/injection, schedule: Q01DX001 (ip), vehicle: other): 3 of 10 | T/C (T/C endpoint: mean survival time, dose: 444.0 mg/kg/injection, schedule: Q01DX001 (ip), vehicle: saline): 133 % of control | survivor count (T/C endpoint: mean survival time, dose: 448.0 mg/kg/injection, schedule: Q07DX Z (ip), vehicle: methylcellulose (MC)): 3 of 7 | survivor count (T/C endpoint: mean survival time, dose: 448.0 mg/kg/injection, schedule: Q07DX Z (ip), vehicle: saline): 0 of 6 | T/C (T/C endpoint: mean survival time, dose: 560.0 mg/kg/injection, schedule: Q01DX001 (ip), vehicle: saline): 135 % of control | survivor count (T/C endpoint: mean survival time, dose: 666.0 mg/kg/injection, schedule: Q01DX001 (ip), vehicle: carboxymethylcellulose (CMC)): 0 of 10 | survivor count (T/C endpoint: mean survival time, dose: 666.0 mg/kg/injection, schedule: Q01DX001 (ip), vehicle: other): 2 of 10 | survivor count (T/C endpoint: mean survival time, dose: 896.0 mg/kg/injection, schedule: Q07DX Z (ip), vehicle: methylcellulose (MC)): 1 of 7 | survivor count (T/C endpoint: mean survival time, dose: 1120.0 mg/kg/injection, schedule: Q01DX001 (ip), vehicle: saline): 3 of 6 | survivor count (T/C endpoint: mean survival time, dose: 1120.0 mg/kg/injection, schedule: Q07DX Z (ip), vehicle: saline): 2 of 6 | survivor count (T/C endpoint: mean survival time, dose: 1280.0 mg/kg/injection, schedule: Q01DX Z (ip), vehicle: saline): 1 of 6 | T/C (T/C endpoint: mean survival time, dose: 1875.0 micrograms/kg/injection, schedule: Q01DX Z (ip), vehicle: carboxymethylcellulose (CMC)): 131 % of control | T/C (T/C endpoint: median survival time, dose: 32.0 mg/kg/injection, schedule: Q01DX009 (ip), vehicle: saline): 138 % of control | T/C (T/C endpoint: median survival time, dose: 64.0 mg/kg/injection, schedule: Q01DX009 (ip), vehicle: saline): 127 % of control
